# From the supplement of paper PMC10338343
# ± gives the standard deviation. This is a selection; strong and weak results do not stand in their true shares. Many of these values have a large error. This is one part of the list.
# Legend:
# [1] = test system: MILI (PIWIL2) piRISC loaded with L1MC piRNA (26 nt); test: pre-steady-state target cleavage rate (min^-1); higher = faster piRNA-guided slicing of the target; conditions: guide: L1MC piRNA 5'p-UAACUAAAUACUAUGCAAGCUGUAGG
# In short: (§1)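 The pre-steady-state cleavage rate was calculated from a burst-and-steady-state fit. Data came from Cleave-'n-Seq, in which […] transcribed, DNA-blocked target RNA library was mixed with 1 nM active affinity-purified piRISC carrying one synthetic guide, with or without 500 nM GTSF1 partner protein, in HEPES–potassium acetate buffer at 33 °C for 0–8 or 0–960 min. Uncleaved targets were sequenced and normalised to depth and to weakly complementary targets, three trials were pooled, and k3 was capped at 0.0001 min^-1.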
# [2] = test system: MIWI (PIWIL1) piRISC loaded with L1MC piRNA (30 nt); test: as above; conditions: guide: L1MC piRNA 5'p-UAACUAAAUACUAUGCAAGCUGUAGGUCCU
# In short: as §1
# [3] = test system: EfPiwi piRISC loaded with L1MC piRNA (26 nt); test: pre-steady-state target cleavage rate (min^-1); guide: L1MC piRNA 5'p-UAACUAAAUACUAUGCAAGCUGUAGG; MIWI and MILI are mouse PIWI proteins and EfPiwi is from a freshwater sponge; tags in brackets are library labels; higher = faster piRNA-guided slicing of the target
# In short: as §1
# [4] = auxiliary factor: none (no GTSF1)
# [5] = auxiliary factor: 500 nM Ephydatia muelleri Gtsf1
# [6] = auxiliary factor: none (no Gtsf1)
# [7] = auxiliary factor: 500 nM mouse GTSF1
Sequence,"pre-steady-state target cleavage rate [1, 4]","pre-steady-state target cleavage rate [2, 4]","pre-steady-state target cleavage rate [3, 5]","pre-steady-state target cleavage rate [3, 6]","pre-steady-state target cleavage rate [1, 7]","pre-steady-state target cleavage rate [2, 7]"
UCCUGCUAGUGCUUGCAUAGUAUUUACAAA,0.000469 ± 0.0093,0.00195 ± 0.0029,0.000936 ± 0.0034,0.000131 ± 0.045,,
UCCUGGAUCAGCUUCCAUAGUAUUUAGUUA,0.00133 ± 0.0034,0.00169 ± 0.002,0.00321 ± 0.0017,0.000183 ± 0.028,,
UCCUGGAUGUGCUUCCAUAGAAUUUAGUUA,0.000816 ± 0.0069,0.000828 ± 0.0074,0.000412 ± 0.0077,0.000358 ± 0.013,,
UCCUGGAACAGCUUGCAUAGUAAUUAGAAA,0.00116 ± 0.0052,0.00284 ± 0.003,0.00338 ± 0.0026,0.000109 ± 0.039,,
UCCUCCUACAGCUUGCAUAGUUAUUACAAA,0.000625 ± 0.0096,0.00101 ± 0.006,0.00183 ± 0.0043,0.000394 ± 0.016,,
UCCUGCUACAGCAAGCAUAGUAUUUUCAAA,0.000661 ± 0.012,0.000673 ± 0.014,0.00106 ± 0.0074,0.000291 ± 0.021,,
UCCUGGAUGUGCUUGCAUAGAAUUAAGUUA,0.00121 ± 0.004,0.00167 ± 0.0036,0.001 ± 0.0051,0.000261 ± 0.03,,
UCCUGGAACAGCUUGCAUAGAUAUUUCAAA,0.000637 ± 0.0073,0.000709 ± 0.0086,0.000766 ± 0.0045,0.000278 ± 0.02,,
UCCUCCUACAGCUUGCAUUGUAUUUUCAAA,0.000923 ± 0.0047,0.00112 ± 0.0048,0.00284 ± 0.0038,0.000154 ± 0.033,,
UCCUGCUACAGCUUGCAUAGUUAAUAGUAA,0.000614 ± 0.01,0.00186 ± 0.0046,0.00149 ± 0.0022,0.000319 ± 0.019,,
UCCUGGAACAGCUUGCAUAGUAAAUAGUAA,0.00164 ± 0.0046,0.00285 ± 0.0041,0.00128 ± 0.0038,0.000312 ± 0.021,,
UCCUCCUACAGCUAGCAUAGUAUUUACAAA,0.00142 ± 0.0042,0.00121 ± 0.0055,0.00397 ± 0.0031,0.000445 ± 0.015,,
UCCUGGAUGUCGAAGCAUAGUAUUUUGAUA,0.000248 ± 0.018,0.000392 ± 0.016,0.000248 ± 0.0091,< 0.0001,,
UCCUGGAACAGCUUGCAUAGAUUUUAGAAA,0.000778 ± 0.0066,0.000461 ± 0.0063,0.00113 ± 0.0024,0.000161 ± 0.025,,
UCCUCCUACAGCUUGCAGUAGUAUUUAGUUA,0.000318 ± 0.0091,0.000767 ± 0.0089,0.00539 ± 0.0033,0.00152 ± 0.0052,,
UCCUCCUACAGCUUGCAUGAGUAUUUAGUUA,0.00158 ± 0.0036,0.000784 ± 0.0082,0.00215 ± 0.0028,0.000495 ± 0.012,,
UCCUCCUACAGCUUGCAUAGUAUGUAGUUA,0.000844 ± 0.0075,0.00302 ± 0.0038,0.00354 ± 0.0013,0.000422 ± 0.011,,
UCCUGGUACAGCUUCCAUAGUAUUUACAAA,0.000806 ± 0.0082,0.00103 ± 0.0063,0.00151 ± 0.0026,0.00029 ± 0.02,,
UCCUGGAUGAGCUUGCAUAGUAUAAUGUAA,0.000745 ± 0.0066,0.00104 ± 0.0044,0.000918 ± 0.0035,0.000979 ± 0.012,,
UCCUGGAUGAGCUUGCUAUGUAUUUACAAA,0.000411 ± 0.015,0.000238 ± 0.012,0.000461 ± 0.0073,0.000309 ± 0.031,,
UCCUCCUACAGCUACCAUAGUAUUUAGAAA,0.000713 ± 0.0072,0.000677 ± 0.0076,0.00162 ± 0.0024,0.000208 ± 0.021,,
UCCUCCUACAGCUUGCAUAGUAUUAUGUAA,0.000903 ± 0.005,0.00147 ± 0.0033,0.00434 ± 0.0026,0.000495 ± 0.011,,
UCCUGGAUGAGCUUGCAAUAGUAUUUAGUUA,0.00098 ± 0.0077,0.000574 ± 0.0047,0.00597 ± 0.003,0.002 ± 0.006,,

Sequence,"pre-steady-state target cleavage rate [1, 4]","pre-steady-state target cleavage rate [2, 4]","pre-steady-state target cleavage rate [3, 5]","pre-steady-state target cleavage rate [3, 6]","pre-steady-state target cleavage rate [1, 7]","pre-steady-state target cleavage rate [2, 7]"
UCCUGGAUGUGCUUGCAUAGUAAAAAGUAA,0.000756 ± 0.006,0.000383 ± 0.0078,0.000346 ± 0.015,0.00041 ± 0.019,,
UCCUGGAUGUGCUUGCAUAGUAUAUUGUUA,0.000861 ± 0.0088,0.003 ± 0.0031,0.00234 ± 0.003,0.000742 ± 0.012,,
UCCUGGAUGUGCAACCAUAGUAUUUAGUUA,0.00161 ± 0.0039,0.000684 ± 0.011,0.000363 ± 0.013,0.000325 ± 0.02,,
UCCUGGAUCAGCUUGCAUAGAUAUUAGAAA,0.000442 ± 0.013,0.000264 ± 0.013,0.000406 ± 0.0071,0.00054 ± 0.012,,
UCCUGGAUGUCCUUGCAAUGUAUUUAGUAA,0.00239 ± 0.0033,0.000948 ± 0.0074,0.00111 ± 0.0067,0.000425 ± 0.016,,
UCCUGGAACAGCUUGCUAAGUAUUUAGAAA,0.00108 ± 0.0048,0.00182 ± 0.0036,0.00076 ± 0.0046,0.000376 ± 0.015,,
UCCUGGAACAGCUUGCAUAGAAUUUACAAA,0.000554 ± 0.0099,0.00186 ± 0.0054,0.00102 ± 0.0032,0.000815 ± 0.012,,
UCCUGGAACACCUUGCAUAGUAUUUACAAA,0.00121 ± 0.0049,0.00243 ± 0.0034,0.003 ± 0.0033,0.000823 ± 0.014,,
UCCUGGAUGUCGAUGCAUUGUAUUUAGAUA,,,0.000144 ± 0.023,0.000373 ± 0.022,0.000247 ± 0.037,0.000216 ± 0.041
UCCUGCUACAGCUUGCAUAGAUUUUAGAAA,0.000462 ± 0.0086,0.00085 ± 0.0066,0.00168 ± 0.0031,0.000185 ± 0.024,,
UCCUGGAACAGCUUGCAAUGUAUUUAGAAA,0.00163 ± 0.0045,0.00321 ± 0.0033,0.00187 ± 0.0053,0.000764 ± 0.013,,
UCCUGGUACAGCUUGGAUAGUAUUUAGAAA,0.00113 ± 0.0046,0.00244 ± 0.0036,0.00277 ± 0.0022,0.000319 ± 0.026,,
UCCUGGAUGAGCAUCCAUAGUAUUUAGUUA,0.000885 ± 0.01,0.000192 ± 0.025,0.00201 ± 0.0034,0.000125 ± 0.037,,
UCCUGGAUCAGCUAGCAUAGUAUUUUCAAA,0.00148 ± 0.0042,0.00143 ± 0.0053,0.00203 ± 0.0046,0.000201 ± 0.026,,
UCCUGGAUGUGCUUGCAUAGUAUAAUCAAA [g8:g20:cont:t1A],0.000361 ± 0.015,0.000248 ± 0.016,0.000518 ± 0.0052,0.000361 ± 0.023,,
UCCUGGUACAGCUUGGUUAGUAUUUUCAAA,0.00139 ± 0.008,0.000564 ± 0.014,0.000396 ± 0.019,0.000357 ± 0.04,,
UCCUCCUACAGCUUGCAAAGUAUUUUCAAA,0.0014 ± 0.0036,0.00213 ± 0.004,0.00286 ± 0.0028,0.00046 ± 0.014,,
UCCUGGAACAGCUUGCAUAGUAUUUGUUA,0.000843 ± 0.0076,0.00308 ± 0.0035,0.00531 ± 0.0019,0.000863 ± 0.0096,,
UCCUGGAACAGCUUGCAUAGUAAAAAGAAA,0.000983 ± 0.0073,0.00152 ± 0.0061,0.00331 ± 0.0034,0.00072 ± 0.012,,
UCCUGGAUGAGCUUGCAUAGAUAAAUCAAA [g11:g21:cont:t1A],0.00035 ± 0.016,0.000202 ± 0.021,0.000364 ± 0.0095,0.000149 ± 0.046,,
UCCUGGAUGUGCUUGCAUAGUUUUAAGUUA,0.003 ± 0.0034,0.00288 ± 0.0037,0.00172 ± 0.005,0.000433 ± 0.021,,
UCCUGGUACAGCUUGCAUAGUAAAUACAAA,0.000899 ± 0.0054,0.00105 ± 0.0053,0.00108 ± 0.0031,0.000161 ± 0.045,,

# Rewritten bar-delimited: part of the list above.
Sequence | pre-steady-state target cleavage rate [1, 4] | pre-steady-state target cleavage rate [2, 4] | pre-steady-state target cleavage rate [3, 5] | pre-steady-state target cleavage rate [3, 6] | pre-steady-state target cleavage rate [1, 7] | pre-steady-state target cleavage rate [2, 7]
UCCUGGAACAGCUUGCUAAGUAUUUAGAAA | 0.00108 ± 0.0048 | 0.00182 ± 0.0036 | 0.00076 ± 0.0046 | 0.000376 ± 0.015 |  | 
UCCUGGAACAGCUUGCAUAGAAUUUACAAA | 0.000554 ± 0.0099 | 0.00186 ± 0.0054 | 0.00102 ± 0.0032 | 0.000815 ± 0.012 |  | 
UCCUGGAACACCUUGCAUAGUAUUUACAAA | 0.00121 ± 0.0049 | 0.00243 ± 0.0034 | 0.003 ± 0.0033 | 0.000823 ± 0.014 |  | 
UCCUGGAUGUCGAUGCAUUGUAUUUAGAUA |  |  | 0.000144 ± 0.023 | 0.000373 ± 0.022 | 0.000247 ± 0.037 | 0.000216 ± 0.041
UCCUGCUACAGCUUGCAUAGAUUUUAGAAA | 0.000462 ± 0.0086 | 0.00085 ± 0.0066 | 0.00168 ± 0.0031 | 0.000185 ± 0.024 |  | 
UCCUGGAACAGCUUGCAAUGUAUUUAGAAA | 0.00163 ± 0.0045 | 0.00321 ± 0.0033 | 0.00187 ± 0.0053 | 0.000764 ± 0.013 |  | 
UCCUGGAUGAGCAUCCAUAGUAUUUAGUUA | 0.000885 ± 0.01 | 0.000192 ± 0.025 | 0.00201 ± 0.0034 | 0.000125 ± 0.037 |  | 
UCCUGGAACAGCUUGCAUAGUAAAAAGAAA | 0.000983 ± 0.0073 | 0.00152 ± 0.0061 | 0.00331 ± 0.0034 | 0.00072 ± 0.012 |  | 
